Reference: the supplement of paper PMC3334620
The full ranking holds about 33,000 sequences; the median of “E-score (-0.5 to 0.5)” is about -0.016, and the highest 2% start at about 0.3. This is one part of the list.

Each sequence was assayed against T1, Yer184c (UniProt P39961) (assay: PBM E-score (8-mer binding enrichment) (E-score (-0.5 to 0.5)); higher = stronger / more preferred TF binding). Conditions: protein concentration: 100 nM; construct: GST-full length.
T1 sequence: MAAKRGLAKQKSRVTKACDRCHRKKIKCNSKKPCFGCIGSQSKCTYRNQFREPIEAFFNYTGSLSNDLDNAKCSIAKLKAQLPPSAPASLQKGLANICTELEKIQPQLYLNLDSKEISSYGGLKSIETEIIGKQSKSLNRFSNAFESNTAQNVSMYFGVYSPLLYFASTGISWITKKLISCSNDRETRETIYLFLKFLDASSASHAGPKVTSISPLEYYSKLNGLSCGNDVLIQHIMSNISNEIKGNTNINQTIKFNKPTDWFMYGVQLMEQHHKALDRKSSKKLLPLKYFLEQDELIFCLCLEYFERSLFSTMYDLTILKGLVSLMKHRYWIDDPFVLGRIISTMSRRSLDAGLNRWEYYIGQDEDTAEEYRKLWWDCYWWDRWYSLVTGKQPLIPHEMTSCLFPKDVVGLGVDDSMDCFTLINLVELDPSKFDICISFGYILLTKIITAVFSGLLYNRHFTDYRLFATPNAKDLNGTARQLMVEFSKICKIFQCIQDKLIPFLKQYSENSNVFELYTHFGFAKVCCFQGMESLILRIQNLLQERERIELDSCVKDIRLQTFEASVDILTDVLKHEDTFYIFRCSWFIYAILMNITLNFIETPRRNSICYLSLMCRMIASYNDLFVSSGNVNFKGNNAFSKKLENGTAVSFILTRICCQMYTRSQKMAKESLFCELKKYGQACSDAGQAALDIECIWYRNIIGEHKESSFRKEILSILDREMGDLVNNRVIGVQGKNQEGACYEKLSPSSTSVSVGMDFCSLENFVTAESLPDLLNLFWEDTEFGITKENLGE
Procedure: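 Universal 'all 10-mer' protein binding microarrays (Agilent AMADID 015681) probed with GST-tagged S. cerevisiae TFs (full-length or DBD) made by in vitro transcription/translation (PURExpress), about 100-200 nM. Bound TF was detected with fluorescent anti-GST. Each ungapped 8-mer (which stands for itself and its reverse complement) is scored by the PBM enrichment score (E-score), a modified Wilcoxon-Mann-Whitney statistic from -0.5 to +0.5, computed with the Universal PBM Analysis Suite. Scale: above 0.35 generally sequence-specific binding.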

Row | Sequence | PBM E-score
1 | ATTGCGAA | 0.015
2 | TGGAAGAA | 0.184
3 | ATCATGCC | 0.0169
4 | ACTCTACC | -0.0949
5 | GGTGGTAA | 0.156
6 | CAAAAGTG | -0.154
7 | CGCTGTCC | 0.016
8 | GAGACTCC | -0.103
9 | AGGAGAGA | -0.122
10 | GTCAAGTA | -0.187
11 | CACTGCGC | -0.162
12 | AAAGAGTG | -0.198
13 | AGTAAAAG | 0.143
14 | GTCCACTA | -0.132
15 | CGAAAGTC | 0.0707
16 | CCAGACCG | 0.0882
17 | CATCCACC | -0.0714
18 | GTAAGAAA | -0.0375
19 | CATAACCA | -0.0445
20 | ATTAGTGA | 0.0684
21 | GTGAGTCA | -0.194
22 | AACGAGTC | -0.0777
23 | AGCCTCGC | -0.228
24 | AGCATTGG | -0.225
25 | AGCCCGGC | 0.309

Row | Sequence | PBM E-score
26 | CCCACAGC | -0.218
27 | AAAGTACT | -0.0242
28 | ATAATTAG | 0.203
29 | ACCATGTG | -0.212
30 | AAAGCGTC | -0.0236
31 | TCCCATCA | -0.266
32 | GCGTGGAA | -0.146
33 | GTACAAAC | 0.0283
34 | GGCATGTA | -0.0945
35 | TATGGTAA | 0.116
36 | CATGCGTC | -0.166
37 | ATATCTCG | 0.13
38 | AGCCGAGC | 0.318
39 | GAGCGAAC | -0.141
40 | CGGTATGA | 0.175
41 | GAGCGTCA | -0.142
42 | TCAATACA | 0.0627
43 | AATGAAAG | 0.0204
44 | AAGAGTCA | -0.0511
45 | AGCGAGTG | 0.0192
46 | GTGTGCTA | -0.0363
47 | ATAACACC | 0.0384
48 | AGTCGACG | 0.195
49 | ATTAACTC | 0.225
50 | TGGCGCAA | -0.0859

Three entries from above, with each value named.
CCCACAGC
  PBM E-score = -0.218
GTACAAAC
  PBM E-score = 0.0283
AATGAAAG
  PBM E-score = 0.0204

Remaining list, next part

Row | Sequence | PBM E-score
51 | GCCGTGAA | 0.174
52 | AGAGCACC | -0.286
53 | GGTGTCTA | 0.0247
54 | AGGGTAGC | -0.241
55 | GGGTGAAA | 0.123
56 | AGATTAAG | 0.133
57 | GCACGTCC | -0.0709
58 | CGCGCGCA | 0.221
59 | ATCCTCGC | -0.127
60 | TGTTCTAA | 0.0972
61 | AACGGGAC | -0.129
62 | CACCCCGA | -0.0375
63 | ACTATACC | 0.0161
64 | CGTACGGA | 0.131
65 | CCTAGAGG | -0.269
66 | GTTGACCA | -0.0672
67 | AAGTTACT | 0.0522
68 | ACCCGGGC | 0.233
69 | ATAAGCAG | 0.00872
70 | AATATAAC | 0.18
71 | AAATGGTT | -0.0168
72 | CGCCCGAC | 0.102
73 | ACACGAGA | -0.102
74 | CAGTCCAA | -0.188
75 | ATGGGCCA | -0.0849

Row | Sequence | PBM E-score
76 | CTAGTACC | -0.198
77 | GTAGGATA | -0.0565
78 | ACGAGAAG | -0.133
79 | AATCCACG | 0.00561
80 | TAAGCATA | 0.0594
81 | ATGAAGTC | -0.0525
82 | CTACTCGA | 0.088
83 | TCACCGAA | 0.26
84 | AATTAGCA | 0.236
85 | ACGTGATA | -0.13
86 | AAAAAAGA | 0.0574
87 | AGACAGCA | 0.0789
88 | CATACTCG | -0.0191
89 | ACCGAAAG | 0.181
90 | AAGTGTTA | 0.0223
91 | TACTACAA | 0.191
92 | AGCGGACA | 0.0828
93 | ACATAAAC | 0.217
94 | AATAAACC | 0.128
95 | ATTAACGC | -0.0751
96 | TCGCCAGA | -0.068
97 | TCCGTCAA | 0.215
98 | ATAACTTG | -0.0817
99 | ATTTACAA | 0.117
100 | AATTTCAG | -0.00746

Look-ups from above.
ACGAGAAG – PBM E-score: -0.133
AATAAACC – PBM E-score: 0.128

Continuation.

Row | Sequence | PBM E-score
101 | AATAACCG | 0.0925
102 | CCTTGCCC | 0.0186
103 | AGCCAAGG | -0.16
104 | AAAACTTA | 0.245
105 | CTAGTCGC | -0.207
106 | CAGGAACA | -0.0366
107 | CTAGACAA | 0.0501
108 | AACTAGCC | -0.0863
109 | GAAGCGGC | 0.049
110 | GACGTGAA | 0.00736
111 | AGGGGGGC | -0.372
112 | ACGGCCCC | -0.314
113 | ACAGCAAG | 0.0325
114 | ATGATGCG | -0.0629
115 | CCGCGCCG | 0.291
116 | CCCGAGTC | 0.0466
117 | CAACGTGA | -0.209
118 | CACACCAC | -0.128
119 | AATCCTTC | -0.0992
120 | TACGTTCA | 0.0776
121 | GTTTGTTA | 0.298
122 | AAACTGCG | -0.0381
123 | ATGCGCGG | 0.049
124 | ATGGCAGA | -0.0452
125 | ATTGATCG | 0.14

Row | Sequence | PBM E-score
126 | CCATCTTC | 0.173
127 | TCACAGGA | -0.0252
128 | TACATATA | 0.249
129 | AGACTAGA | -0.211
130 | TGTTGTAA | 0.148
131 | GGTCCGAA | 0.303
132 | ACACCAAC | -0.122
133 | GCGGAACC | 0.268
134 | ACGCTACA | -0.123
135 | CGTCCGTA | 0.0308
136 | ACCTAGAT | -0.243
137 | CTTGTCCA | -0.0775
138 | CAACAATC | 0.114
139 | CTTATTTA | -0.0503
140 | TAGGCCGA | 0.167
141 | CTGTTTTA | 0.0909
142 | CAACATGC | -0.059
143 | CGAGTGGA | -0.0248
144 | AAAAGGTC | -0.0978
145 | GCACCGGA | 0.33
146 | CCAATACC | -0.272
147 | CACGTACG | -0.267
148 | TGAGAGAA | 0.0681
149 | AGACGGTC | -0.0941
150 | CCCTCTAA | -0.191

Row | Sequence | PBM E-score
151 | CAACTCGC | -0.00833
152 | ATAGCGAA | 0.178
153 | GTCACAGA | -0.129
154 | AACCCCTC | -0.327
155 | CCGTAGAC | 0.108
156 | ACCTTCCT | -0.275
157 | CAATAACG | 0.182
158 | GTATTGCA | -0.128
159 | TATATTCA | 0.195
160 | CCAAGTGG | -0.0229
161 | TCTGTGAA | 0.197
162 | CCCGATAA | -0.0514
163 | TAGTACCA | -0.148
164 | CAGTTATA | 0.0323
165 | CGCTCGGA | 0.299
166 | ATCCAAAC | 0.0338
167 | CGGCGCGC | 0.275
168 | AACCAGCC | 0.162
169 | AGATTCAC | -0.157
170 | CAAAAAAA | 0.247
171 | CATCAGCG | -0.0203
172 | TATATGGA | -0.146
173 | ACGTGTTC | -0.0331
174 | TACGCTAA | 0.0349
175 | AGTTCCAC | -0.00257

Given in markdown: entries from further up

| Row | Sequence | PBM E-score |
| --- | --- | --- |
| 157 | CAATAACG | 0.182 |
| 158 | GTATTGCA | -0.128 |
| 159 | TATATTCA | 0.195 |
| 160 | CCAAGTGG | -0.0229 |
| 161 | TCTGTGAA | 0.197 |

Additional entries.

Row | Sequence | PBM E-score
176 | CATTCAAG | -0.043
177 | CTACTTAA | -0.0571
178 | AGTCCTAG | -0.258
179 | CCTCCGTA | -0.0207
180 | GAGTATGC | -0.00892
181 | GACACGTA | -0.0547
182 | GGCTCACA | -0.0762
183 | CAGCGTAG | -0.00772
184 | CATGTCGG | 0.106
185 | AGCGTCTC | -0.23
186 | AAGGACCG | 0.0399
187 | CAGTCGTC | -0.134
188 | CATCGAGC | -0.0549
189 | CTCCGGTC | 0.248
190 | GAATGGCC | 0.0188
191 | CCTCCTGA | -0.216
192 | ATACAGTA | 0.114
193 | CCGGGCAG | 0.186
194 | CAGCCGCG | 0.137
195 | ACCGTGAC | -0.0623
196 | ACTTGACC | 0.106
197 | CGTGGTAC | -0.111
198 | AAAAATGG | 0.0645
199 | TCCATACA | 0.0788
200 | TATTTCCA | 0.0677

Row | Sequence | PBM E-score
201 | CGGAGCCC | -0.177
202 | AGAAGACA | 0.00189
203 | AAGCGTTG | -0.128
204 | AGGAGAGC | -0.29
205 | CTATAGCA | 0.0196
206 | AAAGAGAC | 0.0506
207 | ATGCATCG | 0.209
208 | AGCGTCCG | -0.0165
209 | AGTGTGAA | 0.0486
210 | GAATGTTA | 0.154
211 | AATTTAGG | 0.136
212 | ACGGCGAC | 0.14
213 | GATGCTAA | 0.0993
214 | ACTCCGGC | 0.326
215 | AAGCATAA | 0.0496
216 | GACAACTA | -0.023
217 | ATCGTAGC | -0.0779
218 | AGAGGCAT | -0.00025
219 | AGACATAC | -0.0739
